Experimental data from patent US10799496B2, “Naphthylenyl compounds for long-acting injectable compositions and related methods” (priority 2018, dated 2020).
The source gives many values for each of these; only a part stands here.

Test: Pharmacokinetic evaluation of the release of naltrexone from Compound 2 in rats following a single intramuscular injection
Format: in vivo, Sprague-Dawley rats
Settings: rat plasma
Method: Five male Sprague-Dawley rats were allowed to acclimate to the test facility for at least 2 days prior to study start. For dose administration of Compound 2, the rats were lightly anesthetized with isofluorane, the hind leg shaved and dosed intramuscularly with the formulation using a 21G needle. […] Serial whole blood samples were collected via sublingual route (˜150 μL) at 1, 8, and 24 hours post dose, and at 2, 4, 7, 10, 14, 17, 21, 24, 28, 35, 42, 49, 56, 63, 71, 78, 85, and 91 days post dose.
Blood samples were placed into K2EDTA blood collection tubes. After collection, blood samples were maintained chilled (on wet ice) and centrifuged (11,500 rpm for 2 minutes at 5 degrees C.) within 30 minutes to obtain plasma. Plasma was transferred into a single vial, 1.5 mL screw cap micro-centrifuge tube with inserts and stored at −80 degrees C. until analysis.
The formulation dosed was a crystalline suspension of Compound 2 (46 milligrams of Compound 2 dosed per animal), wherein the crystalline test article was characterized with a particle size distribution of Dv10=12.9 μm, Dv50=31.5 μm, and Dv90=63.1 μm (as measured via laser diffraction). The formulation was prepared the day before dosing. Details of the formulation dosed are described in Table D below.
Results of the above intramuscular rat study of Compound 2 are shown in Tables E and F. In particular, Table E reports the average blood plasma levels of naltrexone in rat (n=5) over 91 days following intramuscular administration.

Measured: Compound 2 conc.

O=C(Cc1ccc2cc(CC(=O)Oc3ccc4c5c3O[C@H]3C(=O)CC[C@@]6(O)[C@@H](C4)N(CC4CC4)CC[C@]536)ccc2c1)Oc1ccc2c3c1O[C@H]1C(=O)CC[C@@]4(O)[C@@H](C2)N(CC2CC2)CC[C@]314 [Compound 2, bis((4R,4aS,7aR,12bS)-3-(cyclopropylmethyl)-4a-hydroxy-7-oxo-2,3,4,4a,5,6,7,7a-octahydro-1H-4,12-methanobenzofuro[3,2-e]isoquinolin-9-yl) 2,2′-(naphthalene-2,6-diyl)diacetate]
<0.1 ng/mL: single i.m. dose of Compound 2, day 4, Rat 1 | single i.m. dose of Compound 2, day 4, Rat 2 | single i.m. dose of Compound 2, day 4, Rat 3 | single i.m. dose of Compound 2, day 4, Rat 4 | single i.m. dose of Compound 2, day 4, Rat 5
